One data set concerns the target T1, OATP1B1 (Homo sapiens, UniProt Q9Y6L6).
T1 sequence (Q9Y6L6 1-691): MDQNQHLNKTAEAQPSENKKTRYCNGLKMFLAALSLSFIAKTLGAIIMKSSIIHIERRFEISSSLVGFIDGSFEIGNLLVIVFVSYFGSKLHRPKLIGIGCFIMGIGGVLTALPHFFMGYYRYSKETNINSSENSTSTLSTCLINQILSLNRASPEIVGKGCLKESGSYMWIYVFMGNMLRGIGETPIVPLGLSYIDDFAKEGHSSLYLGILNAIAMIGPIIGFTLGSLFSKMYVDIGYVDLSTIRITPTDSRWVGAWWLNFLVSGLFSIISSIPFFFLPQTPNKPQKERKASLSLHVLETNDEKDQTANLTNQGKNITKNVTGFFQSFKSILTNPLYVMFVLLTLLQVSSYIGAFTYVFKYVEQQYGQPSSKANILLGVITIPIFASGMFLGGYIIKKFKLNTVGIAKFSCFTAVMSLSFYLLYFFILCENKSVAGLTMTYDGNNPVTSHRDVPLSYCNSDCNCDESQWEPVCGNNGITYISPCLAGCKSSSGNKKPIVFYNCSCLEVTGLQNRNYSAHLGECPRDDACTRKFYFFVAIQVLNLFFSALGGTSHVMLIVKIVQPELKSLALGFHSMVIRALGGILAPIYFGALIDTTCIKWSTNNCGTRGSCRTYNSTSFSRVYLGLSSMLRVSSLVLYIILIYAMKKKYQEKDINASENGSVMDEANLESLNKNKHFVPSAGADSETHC
In words: OATP1B1 inhibitor (IC50) assessment, atorvastatin uptake in transfected HEK cells. Particulars: absence of TUDCA and PB or rifamycin SV.

The target in another data set is T2, OATP1B3 (Homo sapiens, UniProt Q9NPD5).
T2 sequence (Q9NPD5 1-702): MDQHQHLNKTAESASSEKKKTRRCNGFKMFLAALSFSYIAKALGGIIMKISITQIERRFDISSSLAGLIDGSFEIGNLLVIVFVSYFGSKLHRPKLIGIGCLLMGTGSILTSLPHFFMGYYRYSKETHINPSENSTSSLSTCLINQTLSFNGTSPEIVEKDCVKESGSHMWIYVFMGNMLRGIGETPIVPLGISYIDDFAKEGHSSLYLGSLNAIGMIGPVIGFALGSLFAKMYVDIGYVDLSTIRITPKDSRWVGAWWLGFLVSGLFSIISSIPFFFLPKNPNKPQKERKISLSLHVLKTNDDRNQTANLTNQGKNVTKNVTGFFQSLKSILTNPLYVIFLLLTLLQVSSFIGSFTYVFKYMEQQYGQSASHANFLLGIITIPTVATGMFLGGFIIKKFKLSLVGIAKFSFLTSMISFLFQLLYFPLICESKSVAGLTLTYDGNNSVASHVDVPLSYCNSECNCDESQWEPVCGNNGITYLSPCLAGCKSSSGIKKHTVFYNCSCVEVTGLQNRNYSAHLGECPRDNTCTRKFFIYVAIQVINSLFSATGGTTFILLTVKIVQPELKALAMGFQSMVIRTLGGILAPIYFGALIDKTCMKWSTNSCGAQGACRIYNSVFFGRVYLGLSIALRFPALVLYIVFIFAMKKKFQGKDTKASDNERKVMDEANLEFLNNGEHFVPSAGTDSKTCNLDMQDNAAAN
Put plainly: OATP1B3 inhibitor (IC50) assessment, atorvastatin uptake in transfected HEK cells. The settings on record: absence of TUDCA and PB or rifamycin SV.

A further data set addresses T3, OAT3 (Homo sapiens, UniProt Q8TCC7).
T3 sequence (Q8TCC7 1-542): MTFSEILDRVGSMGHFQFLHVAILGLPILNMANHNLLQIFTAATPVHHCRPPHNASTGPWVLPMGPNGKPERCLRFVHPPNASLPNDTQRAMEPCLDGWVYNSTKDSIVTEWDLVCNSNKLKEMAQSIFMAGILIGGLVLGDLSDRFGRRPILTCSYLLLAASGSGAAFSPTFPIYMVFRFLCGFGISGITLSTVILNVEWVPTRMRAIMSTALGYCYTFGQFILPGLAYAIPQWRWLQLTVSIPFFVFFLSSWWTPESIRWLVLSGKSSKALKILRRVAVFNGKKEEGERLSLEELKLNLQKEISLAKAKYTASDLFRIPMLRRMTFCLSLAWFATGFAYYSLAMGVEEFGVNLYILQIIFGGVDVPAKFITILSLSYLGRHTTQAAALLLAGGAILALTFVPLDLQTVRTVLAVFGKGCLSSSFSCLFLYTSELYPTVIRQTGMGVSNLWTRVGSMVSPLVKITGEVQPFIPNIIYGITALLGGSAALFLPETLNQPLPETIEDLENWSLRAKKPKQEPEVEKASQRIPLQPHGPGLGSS
In words: OAT3 inhibitor (IC50) assessment, furosemide uptake in transfected HEK cells.

[1] abbreviates: 5 μM Furosemide alone, 5 min, replicates 1, 2 and Average.

The values that follow come from patent publication US20230277630A1, “METHODS AND COMPOSITIONS FOR TREATING AMYOTROPHIC LATERAL SCLEROSIS” (Amylyx Pharmaceuticals, Inc., priority 2022, published 2023).

Where “and” joins values, the source holds several entries; their conditions need not be identical. Equal entries are not always repeated.

Take `CC(C)c1c(C(=O)Nc2ccccc2)c(-c2ccccc2)c(-c2ccc(F)cc2)n1CC[C@@H](O)C[C@@H](O)CC(=O)O` [atorvastatin]: on OATP1B1, the “influx rate ratio of atorvastatin (OATP1B1 over vector control)” value was determined as 15.1. Further, the “influx rate ratio of atorvastatin (OATP1B3 over vector control)” value on OATP1B3 is recorded as 8.23.
On to `NS(=O)(=O)c1cc(C(=O)O)c(NCc2ccco2)cc1Cl` [furosemide], for which, at OAT3 (5 μM Furosemide alone), the “Net Influx Rate of Furosemide (OAT3)” value was determined as 42.5 pmol/mg protein/minute and the “influx rate ratio of furosemide (OAT3 over vector control)” value was determined as 20.1. Also, at OAT3 (setting [1]), the “Influx Rate of Furosemide, OAT3-HEK Cells” value is 47.3 pmol/mg protein/minute and 44.8 pmol/mg protein/minute and 42.2 pmol/mg protein/minute; the “Influx Rate of Furosemide, Vector Control Cells” value was 1.98 pmol/mg protein/minute and 2.23 pmol/mg protein/minute and 2.47 pmol/mg protein/minute. For the same compound, the “influx rate ratio of furosemide (OAT3 over vector control)” value at OAT3 (absence of TUDCA and PB or probenecid) amounted to 20.1.
